Test results: the supplement of paper PMC4604168 (melanoma cell lines)
This is one part of the list. Single values are uncertain, as repeats are few or missing.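 Imaging used 1,536-well plates; nuclei positive for cleaved PARP by antibody were divided by total DNA-stained nuclei to yield the apoptosis fraction. Doses for screening kept most cells viable, and cell lines differ markedly in resting and induced cleaved-PARP levels.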

Legend:
Experiment in all cases: cleaved PARP positive nuclei fraction relative to DMSO control; melanoma cells; higher = more apoptosis
Conditions in all cases: library dose: low library concentration; 72 h
MZ2-MEL = tested on: MZ2-MEL
MeWo = tested on: MeWo
RPMI7951 = tested on: RPMI7951
RVH-421 = tested on: RVH-421
SkMel28 = tested on: SkMel28
SkMel2 = tested on: SkMel2
SkMel30 = tested on: SkMel30
UACC62 = tested on: UACC62
WM115 = tested on: WM115
WM1716 = tested on: WM1716
WM1745 = tested on: WM1745
WM3526 = tested on: WM3526
WM3619 = tested on: WM3619
WM451Lu = tested on: WM451Lu

C[C@@H](Oc1cc(-c2cnn(C3CCNCC3)c2)cnc1N)c1c(Cl)ccc(F)c1Cl [Crizotinib] + Nc1cccc2c1CN(C1CCC(=O)NC1=O)C2=O [lenalidomide] (first compound 0.2 µM, partner dose 1 µM)
cleaved PARP positive nuclei fraction (MZ2-MEL): 116% | cleaved PARP positive nuclei fraction (MeWo): 136% | cleaved PARP positive nuclei fraction (RPMI7951): 92.4% | cleaved PARP positive nuclei fraction (RVH-421): 101% | cleaved PARP positive nuclei fraction (SkMel28): 175% | cleaved PARP positive nuclei fraction (SkMel2): 73% | cleaved PARP positive nuclei fraction (SkMel30): 30.4% | cleaved PARP positive nuclei fraction (UACC62): 82.9% | cleaved PARP positive nuclei fraction (WM115): 68.9% | cleaved PARP positive nuclei fraction (WM1716): 108% | cleaved PARP positive nuclei fraction (WM1745): 89.5% | cleaved PARP positive nuclei fraction (WM3526): 51.4% | cleaved PARP positive nuclei fraction (WM3619): 87.8% | cleaved PARP positive nuclei fraction (WM451Lu): 134%

CC(C)C[C@H](NC(=O)[C@H](Cc1ccccc1)NC(=O)c1cnccn1)B(O)O [Bortezomib] + Nc1nc(F)nc2c1ncn2[C@@H]1O[C@H](CO)[C@@H](O)[C@@H]1O [fludarabine] (first compound 0.001 µM, partner dose 0.2 µM)
cleaved PARP positive nuclei fraction (MZ2-MEL): 118% | cleaved PARP positive nuclei fraction (MeWo): 670% | cleaved PARP positive nuclei fraction (RPMI7951): 100% | cleaved PARP positive nuclei fraction (RVH-421): 242% | cleaved PARP positive nuclei fraction (SkMel28): 46.4% | cleaved PARP positive nuclei fraction (SkMel2): 792% | cleaved PARP positive nuclei fraction (SkMel30): 4850% | cleaved PARP positive nuclei fraction (UACC62): 55.4% | cleaved PARP positive nuclei fraction (WM115): 126% | cleaved PARP positive nuclei fraction (WM1716): 532% | cleaved PARP positive nuclei fraction (WM1745): 104% | cleaved PARP positive nuclei fraction (WM3526): 875% | cleaved PARP positive nuclei fraction (WM3619): 394% | cleaved PARP positive nuclei fraction (WM451Lu): 395%

Nc1nc(F)nc2c1ncn2[C@@H]1O[C@H](CO)[C@@H](O)[C@@H]1O [fludarabine] + COCC[n+]1c2c(n(Cc3cnccn3)c1C)C(=O)c1ccccc1C2=O [YM155] (first compound 0.2 µM, partner dose 0.0004 µM)
cleaved PARP positive nuclei fraction (MZ2-MEL): 66.2% | cleaved PARP positive nuclei fraction (MeWo): 627% | cleaved PARP positive nuclei fraction (RPMI7951): 243% | cleaved PARP positive nuclei fraction (RVH-421): 59.9% | cleaved PARP positive nuclei fraction (SkMel28): 107% | cleaved PARP positive nuclei fraction (SkMel2): 1530% | cleaved PARP positive nuclei fraction (SkMel30): 1810% | cleaved PARP positive nuclei fraction (UACC62): 81.4% | cleaved PARP positive nuclei fraction (WM115): 267% | cleaved PARP positive nuclei fraction (WM1716): 126% | cleaved PARP positive nuclei fraction (WM1745): 246% | cleaved PARP positive nuclei fraction (WM3526): 4990% | cleaved PARP positive nuclei fraction (WM3619): 110% | cleaved PARP positive nuclei fraction (WM451Lu): 223%

CN1CCN(c2ccc3nc(-c4c(N)c5c(F)cccc5[nH]c4=O)[nH]c3c2)CC1 [Dovitinib] + C[C@]1(c2nc3c(C(N)=O)cccc3[nH]2)CCCN1 [Veliparib] (first compound 0.1 µM, partner dose 1.4 µM)
cleaved PARP positive nuclei fraction (MZ2-MEL): 38.1% | cleaved PARP positive nuclei fraction (MeWo): 76% | cleaved PARP positive nuclei fraction (RPMI7951): 43.3% | cleaved PARP positive nuclei fraction (RVH-421): 222% | cleaved PARP positive nuclei fraction (SkMel28): 72.8% | cleaved PARP positive nuclei fraction (SkMel2): 79.2% | cleaved PARP positive nuclei fraction (SkMel30): 84.1% | cleaved PARP positive nuclei fraction (UACC62): 18.8% | cleaved PARP positive nuclei fraction (WM115): 158% | cleaved PARP positive nuclei fraction (WM1716): 20% | cleaved PARP positive nuclei fraction (WM1745): 25.7% | cleaved PARP positive nuclei fraction (WM3526): 49.2% | cleaved PARP positive nuclei fraction (WM3619): 83.4% | cleaved PARP positive nuclei fraction (WM451Lu): 208%

Cc1cc(Nc2cc(N3CCN(C)CC3)nc(/C=C/c3ccccc3)n2)n[nH]1 + CCCS(=O)(=O)Nc1ccc(F)c(C(=O)c2c[nH]c3ncc(Cl)cc23)c1F [PLX4720] (first compound 0.04 µM, partner dose 0.08 µM)
cleaved PARP positive nuclei fraction (MZ2-MEL): 81.6% | cleaved PARP positive nuclei fraction (MeWo): 91.3% | cleaved PARP positive nuclei fraction (RPMI7951): 130% | cleaved PARP positive nuclei fraction (RVH-421): 134% | cleaved PARP positive nuclei fraction (SkMel28): 100% | cleaved PARP positive nuclei fraction (SkMel2): 112% | cleaved PARP positive nuclei fraction (SkMel30): 25.5% | cleaved PARP positive nuclei fraction (UACC62): 84.3% | cleaved PARP positive nuclei fraction (WM115): 62.1% | cleaved PARP positive nuclei fraction (WM1716): 29.1% | cleaved PARP positive nuclei fraction (WM1745): 87.6% | cleaved PARP positive nuclei fraction (WM3526): 113% | cleaved PARP positive nuclei fraction (WM3619): 89.7% | cleaved PARP positive nuclei fraction (WM451Lu): 79.1%

C[C@@H](Oc1cc(-c2cnn(C3CCNCC3)c2)cnc1N)c1c(Cl)ccc(F)c1Cl [Crizotinib] + Cn1c(Nc2ccc(C(F)(F)F)cc2)nc2cc(Oc3ccnc(-c4ncc(C(F)(F)F)[nH]4)c3)ccc21 [CHIR265] (first compound 0.2 µM, partner dose 0.08 µM)
cleaved PARP positive nuclei fraction (MZ2-MEL): 104% | cleaved PARP positive nuclei fraction (MeWo): 153% | cleaved PARP positive nuclei fraction (RPMI7951): 47.5% | cleaved PARP positive nuclei fraction (RVH-421): 133% | cleaved PARP positive nuclei fraction (SkMel28): 106% | cleaved PARP positive nuclei fraction (SkMel2): 375% | cleaved PARP positive nuclei fraction (SkMel30): 48.2% | cleaved PARP positive nuclei fraction (UACC62): 280% | cleaved PARP positive nuclei fraction (WM115): 334% | cleaved PARP positive nuclei fraction (WM1716): 80.7% | cleaved PARP positive nuclei fraction (WM1745): 119% | cleaved PARP positive nuclei fraction (WM3526): 27.5% | cleaved PARP positive nuclei fraction (WM3619): 107% | cleaved PARP positive nuclei fraction (WM451Lu): 20.6%

Cc1cc(Nc2cc(N3CCN(C)CC3)nc(/C=C/c3ccccc3)n2)n[nH]1 + O=C(O)c1ccc2c(c1)nc(Nc1cccc(Cl)c1)c1ccncc12 [CX4945] (first compound 0.04 µM, partner dose 0.4 µM)
cleaved PARP positive nuclei fraction (MZ2-MEL): 135% | cleaved PARP positive nuclei fraction (MeWo): 118% | cleaved PARP positive nuclei fraction (RPMI7951): 256% | cleaved PARP positive nuclei fraction (RVH-421): 128% | cleaved PARP positive nuclei fraction (SkMel28): 78% | cleaved PARP positive nuclei fraction (SkMel2): 7360% | cleaved PARP positive nuclei fraction (SkMel30): 42.6% | cleaved PARP positive nuclei fraction (UACC62): 55.2% | cleaved PARP positive nuclei fraction (WM115): 79% | cleaved PARP positive nuclei fraction (WM1716): 301% | cleaved PARP positive nuclei fraction (WM1745): 109% | cleaved PARP positive nuclei fraction (WM3526): 88.8% | cleaved PARP positive nuclei fraction (WM3619): 84.8% | cleaved PARP positive nuclei fraction (WM451Lu): 104%

Nc1nc(F)nc2c1ncn2[C@@H]1O[C@H](CO)[C@@H](O)[C@@H]1O [fludarabine] + C[C@]1(c2nc3c(C(N)=O)cccc3[nH]2)CCCN1 [Veliparib] (first compound 0.2 µM, partner dose 1.4 µM)
cleaved PARP positive nuclei fraction (MZ2-MEL): 147% | cleaved PARP positive nuclei fraction (MeWo): 611% | cleaved PARP positive nuclei fraction (RPMI7951): 64% | cleaved PARP positive nuclei fraction (RVH-421): 11.7% | cleaved PARP positive nuclei fraction (SkMel28): 45.9% | cleaved PARP positive nuclei fraction (SkMel2): 670% | cleaved PARP positive nuclei fraction (SkMel30): 2810% | cleaved PARP positive nuclei fraction (UACC62): 137% | cleaved PARP positive nuclei fraction (WM115): 74.4% | cleaved PARP positive nuclei fraction (WM1716): 153% | cleaved PARP positive nuclei fraction (WM1745): 101% | cleaved PARP positive nuclei fraction (WM3526): 561% | cleaved PARP positive nuclei fraction (WM3619): 97.9% | cleaved PARP positive nuclei fraction (WM451Lu): 67.8%

O=C(O)c1ccc2c(c1)nc(Nc1cccc(Cl)c1)c1ccncc12 + CC(=O)c1c(C)c2cnc(Nc3ccc(N4CCNCC4)cn3)nc2n(C2CCCC2)c1=O [palbociclib] (first compound 0.4 µM, partner dose 0.04 µM)
cleaved PARP positive nuclei fraction (MZ2-MEL): 80.1% | cleaved PARP positive nuclei fraction (MeWo): 126% | cleaved PARP positive nuclei fraction (RPMI7951): 92% | cleaved PARP positive nuclei fraction (RVH-421): 49.6% | cleaved PARP positive nuclei fraction (SkMel28): 100% | cleaved PARP positive nuclei fraction (SkMel2): 111% | cleaved PARP positive nuclei fraction (SkMel30): 121% | cleaved PARP positive nuclei fraction (UACC62): 147% | cleaved PARP positive nuclei fraction (WM115): 55.2% | cleaved PARP positive nuclei fraction (WM1716): 173% | cleaved PARP positive nuclei fraction (WM1745): 228% | cleaved PARP positive nuclei fraction (WM3526): 228% | cleaved PARP positive nuclei fraction (WM3619): 106% | cleaved PARP positive nuclei fraction (WM451Lu): 114%

CCCS(=O)(=O)Nc1ccc(F)c(C(=O)c2c[nH]c3ncc(Cl)cc23)c1F + Nc1ncn([C@H]2C[C@H](O)[C@@H](CO)O2)c(=O)n1 [decitabine] (first compound 0.08 µM, partner dose 0.1 µM)
cleaved PARP positive nuclei fraction (MZ2-MEL): 145% | cleaved PARP positive nuclei fraction (MeWo): 96.3% | cleaved PARP positive nuclei fraction (RPMI7951): 24% | cleaved PARP positive nuclei fraction (RVH-421): 225% | cleaved PARP positive nuclei fraction (SkMel28): 94.4% | cleaved PARP positive nuclei fraction (SkMel2): 97.2% | cleaved PARP positive nuclei fraction (SkMel30): 57.3% | cleaved PARP positive nuclei fraction (UACC62): 153% | cleaved PARP positive nuclei fraction (WM115): 139% | cleaved PARP positive nuclei fraction (WM1716): 163% | cleaved PARP positive nuclei fraction (WM1745): 98.8% | cleaved PARP positive nuclei fraction (WM3526): 128% | cleaved PARP positive nuclei fraction (WM3619): 124% | cleaved PARP positive nuclei fraction (WM451Lu): 130%
